# Reference: the supplement of paper PMC12067093, “Discovery and optimisation of a covalent ligand for TRIM25 and its application to targeted protein ubiquitination” (Chemical Science, 2025)
# Protein sequences, listed by entry. Tags and fused reporters are not part of them. Lines headed by an entry give the natural chain unless they say otherwise; changes in a name come on top.
# UniProt Q13129: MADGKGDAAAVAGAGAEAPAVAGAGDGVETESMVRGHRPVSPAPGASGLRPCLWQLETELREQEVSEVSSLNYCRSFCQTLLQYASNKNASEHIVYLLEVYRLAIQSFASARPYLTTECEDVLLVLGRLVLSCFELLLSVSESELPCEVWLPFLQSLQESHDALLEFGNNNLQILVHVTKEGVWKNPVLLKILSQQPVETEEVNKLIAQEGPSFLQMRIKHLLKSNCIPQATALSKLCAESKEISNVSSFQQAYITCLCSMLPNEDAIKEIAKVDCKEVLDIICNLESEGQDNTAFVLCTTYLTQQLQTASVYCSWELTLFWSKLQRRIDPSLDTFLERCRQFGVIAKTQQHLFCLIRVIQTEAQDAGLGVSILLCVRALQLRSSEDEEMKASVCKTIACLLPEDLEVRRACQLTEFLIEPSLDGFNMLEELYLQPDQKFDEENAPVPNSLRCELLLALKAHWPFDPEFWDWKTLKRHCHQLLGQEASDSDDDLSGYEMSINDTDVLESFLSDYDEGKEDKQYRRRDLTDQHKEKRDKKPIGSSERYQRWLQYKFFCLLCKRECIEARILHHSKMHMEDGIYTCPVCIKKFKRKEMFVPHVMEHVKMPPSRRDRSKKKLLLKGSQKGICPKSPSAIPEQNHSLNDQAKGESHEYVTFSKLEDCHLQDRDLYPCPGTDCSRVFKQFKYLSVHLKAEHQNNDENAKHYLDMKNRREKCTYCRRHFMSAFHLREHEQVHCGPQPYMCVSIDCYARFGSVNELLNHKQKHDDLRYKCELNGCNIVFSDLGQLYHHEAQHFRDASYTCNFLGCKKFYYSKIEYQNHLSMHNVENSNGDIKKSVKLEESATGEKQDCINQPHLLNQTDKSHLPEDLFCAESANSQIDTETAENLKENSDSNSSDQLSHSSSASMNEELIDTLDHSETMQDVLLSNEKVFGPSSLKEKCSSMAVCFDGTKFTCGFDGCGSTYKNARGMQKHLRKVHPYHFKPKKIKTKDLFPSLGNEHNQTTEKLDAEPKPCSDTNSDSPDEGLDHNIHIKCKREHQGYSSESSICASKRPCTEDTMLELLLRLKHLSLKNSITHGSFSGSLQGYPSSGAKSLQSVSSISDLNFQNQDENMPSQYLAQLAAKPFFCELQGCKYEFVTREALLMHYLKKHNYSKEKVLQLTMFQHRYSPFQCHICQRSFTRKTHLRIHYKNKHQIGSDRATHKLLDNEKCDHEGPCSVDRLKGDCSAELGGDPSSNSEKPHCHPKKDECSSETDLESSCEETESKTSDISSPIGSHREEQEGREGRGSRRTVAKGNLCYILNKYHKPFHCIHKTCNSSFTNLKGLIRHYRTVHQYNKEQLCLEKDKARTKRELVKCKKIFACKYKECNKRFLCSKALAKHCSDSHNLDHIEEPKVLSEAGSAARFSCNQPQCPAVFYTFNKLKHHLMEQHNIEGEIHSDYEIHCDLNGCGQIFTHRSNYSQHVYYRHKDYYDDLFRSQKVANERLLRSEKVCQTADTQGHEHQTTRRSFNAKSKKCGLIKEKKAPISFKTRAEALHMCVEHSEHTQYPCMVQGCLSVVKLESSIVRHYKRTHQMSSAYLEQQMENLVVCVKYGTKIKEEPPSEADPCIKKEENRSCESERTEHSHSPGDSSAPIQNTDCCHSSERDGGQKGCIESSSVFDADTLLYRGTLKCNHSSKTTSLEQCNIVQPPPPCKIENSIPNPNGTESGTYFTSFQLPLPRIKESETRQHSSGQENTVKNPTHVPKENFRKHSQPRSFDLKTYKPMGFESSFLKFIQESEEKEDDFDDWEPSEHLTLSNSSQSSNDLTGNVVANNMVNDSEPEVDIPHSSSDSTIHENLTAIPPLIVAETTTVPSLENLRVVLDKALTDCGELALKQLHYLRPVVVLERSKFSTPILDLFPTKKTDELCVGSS
# UniProt P51606: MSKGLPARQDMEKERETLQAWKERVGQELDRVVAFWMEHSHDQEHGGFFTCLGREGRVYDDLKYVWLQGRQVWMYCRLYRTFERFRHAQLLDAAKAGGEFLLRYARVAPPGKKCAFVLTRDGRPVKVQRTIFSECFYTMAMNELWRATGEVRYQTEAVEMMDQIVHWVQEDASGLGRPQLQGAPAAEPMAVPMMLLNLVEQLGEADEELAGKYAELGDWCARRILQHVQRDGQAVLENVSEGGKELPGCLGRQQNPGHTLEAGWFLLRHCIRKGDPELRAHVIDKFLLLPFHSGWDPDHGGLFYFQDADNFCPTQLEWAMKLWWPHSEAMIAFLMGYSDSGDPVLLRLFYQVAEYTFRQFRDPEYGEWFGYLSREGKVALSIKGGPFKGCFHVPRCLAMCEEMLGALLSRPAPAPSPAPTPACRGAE
# UniProt Q6R327, whole entry, looked up: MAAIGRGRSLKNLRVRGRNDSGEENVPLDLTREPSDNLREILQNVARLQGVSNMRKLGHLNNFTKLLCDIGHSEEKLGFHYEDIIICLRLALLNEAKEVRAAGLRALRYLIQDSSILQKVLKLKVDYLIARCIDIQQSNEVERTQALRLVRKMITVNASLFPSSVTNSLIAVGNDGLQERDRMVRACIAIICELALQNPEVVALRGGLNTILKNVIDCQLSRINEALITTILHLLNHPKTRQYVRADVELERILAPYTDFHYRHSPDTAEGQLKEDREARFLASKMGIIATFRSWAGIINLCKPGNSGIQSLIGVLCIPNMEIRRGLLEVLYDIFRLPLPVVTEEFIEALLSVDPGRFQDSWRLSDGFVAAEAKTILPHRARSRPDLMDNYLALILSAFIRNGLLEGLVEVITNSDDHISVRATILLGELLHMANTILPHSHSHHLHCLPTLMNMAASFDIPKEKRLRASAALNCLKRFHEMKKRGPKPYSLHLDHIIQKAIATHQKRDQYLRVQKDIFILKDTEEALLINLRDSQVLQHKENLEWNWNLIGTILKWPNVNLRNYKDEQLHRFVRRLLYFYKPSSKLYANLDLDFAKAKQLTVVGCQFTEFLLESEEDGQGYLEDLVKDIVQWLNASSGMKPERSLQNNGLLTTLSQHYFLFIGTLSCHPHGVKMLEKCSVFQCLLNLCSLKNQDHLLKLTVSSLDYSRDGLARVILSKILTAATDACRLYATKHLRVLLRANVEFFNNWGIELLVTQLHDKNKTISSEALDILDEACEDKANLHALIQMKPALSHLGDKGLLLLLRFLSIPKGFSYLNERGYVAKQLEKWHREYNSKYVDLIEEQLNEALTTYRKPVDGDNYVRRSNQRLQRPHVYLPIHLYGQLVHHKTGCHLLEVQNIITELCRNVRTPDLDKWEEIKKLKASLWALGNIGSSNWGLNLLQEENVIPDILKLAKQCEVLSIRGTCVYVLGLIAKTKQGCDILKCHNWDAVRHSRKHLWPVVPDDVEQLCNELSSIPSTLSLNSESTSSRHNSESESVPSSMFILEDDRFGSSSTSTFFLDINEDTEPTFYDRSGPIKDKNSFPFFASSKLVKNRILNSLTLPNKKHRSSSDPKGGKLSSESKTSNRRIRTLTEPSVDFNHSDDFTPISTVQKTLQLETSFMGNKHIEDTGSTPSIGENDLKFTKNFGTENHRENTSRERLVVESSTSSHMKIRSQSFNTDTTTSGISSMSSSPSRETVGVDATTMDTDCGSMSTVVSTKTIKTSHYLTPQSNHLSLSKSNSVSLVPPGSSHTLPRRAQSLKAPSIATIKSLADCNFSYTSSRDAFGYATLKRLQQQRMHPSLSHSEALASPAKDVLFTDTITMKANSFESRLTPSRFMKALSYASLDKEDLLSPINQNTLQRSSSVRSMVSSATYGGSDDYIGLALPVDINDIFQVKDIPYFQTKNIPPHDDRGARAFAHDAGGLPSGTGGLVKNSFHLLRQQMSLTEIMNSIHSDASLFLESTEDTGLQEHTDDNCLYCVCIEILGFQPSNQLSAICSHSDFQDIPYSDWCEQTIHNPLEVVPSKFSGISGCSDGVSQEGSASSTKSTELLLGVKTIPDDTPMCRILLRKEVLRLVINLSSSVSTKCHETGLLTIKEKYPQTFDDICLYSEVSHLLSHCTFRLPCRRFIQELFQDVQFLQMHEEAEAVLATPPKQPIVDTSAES
# Some of the results follow.
# Compound: CC1Cc2ccccc2N1C(=O)C1CCCN(C1)C(=O)CCl (mixture of isomers) [TRIM25 ligand 11 (diastereomer mixture)]
# Assay: probe-labelled cysteine peptide fold change vs DMSO (competition) (log2 fold change); higher = less target engagement (more negative = stronger competition)
# Conditions: THP-1, incubation time: 4 h
# 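Further: competitive chemoproteomic profiling in live THP-1 cells with an iodoacetamide desthiobiotin (IA-DTB) probe, comparing probe-labelled peptide intensities in compound-treated cells against DMSO-treated controls.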
target,measurement,setting,value
RLF_Q13129_400_TIACLLPEDLEVRR (UniProt Q13129),probe-labelled cysteine peptide fold change,10 µM,0.0371
same,probe-labelled cysteine peptide fold change,50 µM,0.152
RENBP_P51606_51_VVAFWMEHSHDQEHGGFFTCLGR (UniProt P51606),probe-labelled cysteine peptide fold change,10 µM,0.0801
same,probe-labelled cysteine peptide fold change,50 µM,-0.12
RICTOR_Q6R327_959_QCEVLSIR (UniProt Q6R327),probe-labelled cysteine peptide fold change,10 µM,0.0442
same,probe-labelled cysteine peptide fold change,50 µM,0.0763
